Assay results as given in PubChem BioAssay AID248 (DTP/NCI, 2004).
The list shows only some results of the screen, not a fair sample: it is rich in T/C values a quarter to a half above the control, in often repeated tests (any T/C) and in doses without a T/C. Further doses and runs are listed elsewhere. T/C: endpoint of the treated group in % of that of the vehicle group. Some doses have a count of surviving animals in place of a T/C: the source files T/C as zero there, which appears to mark a toxic dose or a test without result, not a measured value. Some survivor counts are full or nearly so, which does not show that the dose was tolerated: survival well below the control is almost never listed, so the zero probably covers shortened survival too. Counts of survivors are from the toxicity check (mostly the fifth day) where no day follows; animals may have died later. Schedule codes are those of the source, read here as Q, the interval in days (D) or hours (H), X, the number of doses. Some schedules carry Z or #; the key to these is not given. Where survival is the endpoint, the PubChem record calls one and a half times the control and up active, and a quarter to a half above the control has no call in these data; cut-offs in other NCI protocols can differ. Marks such as (2×) give the number of equal values in this list.

Tested on: L1210 leukemia ip in BDF1 mice, survival T/C
Test: NCI In Vivo Anticancer Drug Screen. Data for tumor model L1210 Leukemia (intraperitoneal) in B6D2F1 (BDF1) mice
Settings: T/C endpoint: mean survival time, higher T/C = longer survival
[1] = dose: 400.0 mg/kg/injection, schedule: Q04DX003 (ip), vehicle: saline with Tween-80
[2] = dose: 250.0 mg/kg/injection, schedule: Q01DX Z (ip), vehicle: carboxymethylcellulose (CMC)
[3] = dose: 500.0 mg/kg/injection, schedule: Q01DX Z (ip), vehicle: carboxymethylcellulose (CMC)
[4] = dose: 400.0 mg/kg/injection, schedule: Q01DX001 (ip), vehicle: saline
[5] = dose: 400.0 mg/kg/injection, schedule: Q01DX009 (ip), vehicle: Klucel (hydroxypropylcellulose) (HPC)
[6] = dose: 200.0 mg/kg/injection, schedule: Q01DX009 (ip), vehicle: saline
[7] = dose: 400.0 mg/kg/injection, schedule: Q01DX009 (ip), vehicle: saline
[8] = dose: 50.0 mg/kg/injection, schedule: Q01DX005 (ip), vehicle: saline
[9] = dose: 100.0 mg/kg/injection, schedule: Q01DX005 (ip), vehicle: saline
[10] = dose: 200.0 mg/kg/injection, schedule: Q01DX005 (ip), vehicle: saline

## CS(=O)(=O)OCCN(CCOS(C)(=O)=O)c1ccc(C=Nc2ccc(C(=O)O)c(O)c2)cc1
dose: 8.0 mg/kg/injection, schedule: Q01DX009 (ip), vehicle: saline with Tween-80
  T/C: 138 % of control (2×)
dose: 12.0 mg/kg/injection, schedule: Q01DX009 (ip), vehicle: saline with Tween-80
  T/C: 149 % of control
dose: 12.5 mg/kg/injection, schedule: Q01DX009 (ip), vehicle: saline with Tween-80
  T/C: 131 % of control
dose: 12.5 mg/kg/injection, schedule: Q04DX003 (ip), vehicle: saline with Tween-80
  T/C: 129 % of control
dose: 18.0 mg/kg/injection, schedule: Q01DX009 (ip), vehicle: saline with Tween-80
  T/C: 144 % of control
dose: 25.0 mg/kg/injection, schedule: Q01DX009 (ip), vehicle: saline with Tween-80
  T/C: 147 % of control
dose: 25.0 mg/kg/injection, schedule: Q04DX003 (ip), vehicle: saline with Tween-80
  T/C: 131 % of control
dose: 50.0 mg/kg/injection, schedule: Q01DX009 (ip), vehicle: saline with Tween-80
  survivor count: 5 of 6
dose: 100.0 mg/kg/injection, schedule: Q04DX003 (ip), vehicle: saline with Tween-80
  survivor count: 5 of 6
dose: 200.0 mg/kg/injection, schedule: Q04DX003 (ip), vehicle: saline with Tween-80
  survivor count: 5 of 6
[1]
  survivor count: 0 of 6

## CCCC[P+](CCCC)(CCCC)CC(=O)OCC
dose: 30.0 mg/kg/injection, schedule: Q01DX001 (ip), vehicle: carboxymethylcellulose (CMC)
  survivor count: 6 of 6

## C1CCC2[N-]CC3CCCCC3[N-]CC3CCCCC3[N-]CC3CCCCC3[N-]CC2C1.[Cu+2].[O-][Cl+3]([O-])([O-])O (stereo unspecified)
dose: 100.0 mg/kg/injection, schedule: Q04DX002 (ip), vehicle: Klucel (hydroxypropylcellulose) (HPC)
  survivor count: 0 of 3
dose: 200.0 mg/kg/injection, schedule: Q04DX002 (ip), vehicle: Klucel (hydroxypropylcellulose) (HPC)
  survivor count: 0 of 3
dose: 400.0 mg/kg/injection, schedule: Q04DX002 (ip), vehicle: Klucel (hydroxypropylcellulose) (HPC)
  survivor count: 0 of 3

## CN=C(N)Nc1ccc(NC(=O)Nc2ccc(NC(=O)Nc3ccc(NC(N)=NC)cc3)cc2)cc1
dose: 15.0 mg/kg/injection, schedule: Q01DX Z (ip), vehicle: carboxymethylcellulose (CMC)
  T/C: 132 % of control
dose: 62.0 mg/kg/injection, schedule: Q01DX Z (ip), vehicle: carboxymethylcellulose (CMC)
  T/C: 130 % of control
dose: 125.0 mg/kg/injection, schedule: Q01DX Z (ip), vehicle: carboxymethylcellulose (CMC)
  survivor count: 5 of 6
[2]
  survivor count: 2 of 6
[3]
  survivor count: 0 of 6

## O=C(O/N=C(\C(=O)c1ccccc1)c1ccccc1)c1ccc(Br)cc1
[1]
  survivor count: 6 of 6

## OC1COC(Cl)C(O)C1O (stereo unspecified)
[1]
  survivor count: 0 of 6

## S=C(S)N1CCOCC1
[4]
  survivor count: 3 of 6

## NC1CCCN(Cc2ccccc2)C1 (stereo unspecified)
dose: 300.0 mg/kg/injection, schedule: Q04DX003 (ip), vehicle: saline
  survivor count: 3 of 6

## O=C(O)CNC(=O)CNC(=O)C(Br)Cc1ccccc1 (stereo unspecified)
[5]
  survivor count: 6 of 6

## O=C1C=CC(=O)c2cc3ccccc3cc21
dose: 200.0 mg/kg/injection, schedule: Q01DX001 (ip), vehicle: carboxymethylcellulose (CMC)
  survivor count: 2 of 4
dose: 400.0 mg/kg/injection, schedule: Q01DX001 (ip), vehicle: carboxymethylcellulose (CMC)
  survivor count: 2 of 4

## Nc1ncnn1C(=S)NCc1ccccc1
[6]
  survivor count: 6 of 6
[7]
  survivor count: 5 of 6

## N#Cc1c(N)n(C2OC(CO)C(O)C2O)c2ncnc(N)c12 (stereo unspecified)
dose: 4.0 mg/kg/injection, schedule: Q01DX005 (ip), vehicle: saline
  T/C: 130 % of control
dose: 8.0 mg/kg/injection, schedule: Q01DX005 (ip), vehicle: saline
  T/C: 132 % of control
dose: 12.5 mg/kg/injection, schedule: Q01DX005 (ip), vehicle: saline
  survivor count: 3 of 6
dose: 25.0 mg/kg/injection, schedule: Q01DX005 (ip), vehicle: saline
  survivor count: 0 of 6
[8]
  survivor count: 0 of 6
[9]
  survivor count: 0 of 6
[10]
  survivor count: 0 of 6

## Cc1ccc(NNP(Cl)(c2ccccc2)(c2ccccc2)c2ccccc2)cc1
dose: 200.0 mg/kg/injection, schedule: Q01DX001 (ip), vehicle: saline
  survivor count: 1 of 6
[4]
  survivor count: 0 of 6

## Cc1cccc(N2CCN(CCO)CC2)c1
dose: 100.0 mg/kg/injection, schedule: Q01DX009 (ip), vehicle: saline
  survivor count: 1 of 3
[6]
  survivor count: 0 of 3

## NC(=O)c1ccccc1NC(=O)CCCOc1ccccc1
dose: 400.0 mg/kg/injection, schedule: Q04DX003 (ip), vehicle: Klucel (hydroxypropylcellulose) (HPC)
  survivor count: 6 of 6

## Cc1cc(C)c(NC(=O)Nc2cccc(F)c2)c(C)c1
[5]
  survivor count: 5 of 6

## Cc1cc(N(CCCl)CCCl)ccc1C=Nc1ccccc1-c1ccccc1
dose: 20.0 mg/kg/injection, schedule: Q01DX Z (ip), vehicle: carboxymethylcellulose (CMC)
  T/C: 126 % of control

## O=C(Cc1ccccc1)C(Cl)c1ccccc1 (stereo unspecified)
[4]
  survivor count: 1 of 6

## CC(=O)OC(C)C(C)C(=O)OCC12C3CC4(C)C(=CCC5C6(C)CCC(OC7OC(C(=O)O)C(OC8OC(CO)C(O)C(O)C8O)C(O)C7OC7OCC(O)C(O)C7O)C(C)(CO)C6CCC54C)C1CC(C)(C)C(O3)C2O (stereo unspecified)
dose: 10.0 mg/kg/injection, schedule: Q01DX001 (sc), vehicle: steroid suspending solution
  survivor count: 1 of 6
dose: 20.0 mg/kg/injection, schedule: Q01DX001 (sc), vehicle: steroid suspending solution
  survivor count: 2 of 6
dose: 40.0 mg/kg/injection, schedule: Q01DX001 (sc), vehicle: steroid suspending solution
  survivor count: 0 of 6
dose: 80.0 mg/kg/injection, schedule: Q01DX001 (sc), vehicle: steroid suspending solution
  survivor count: 0 of 6
dose: 100.0 mg/kg/injection, schedule: Q01DX001 (sc), vehicle: steroid suspending solution
  survivor count: 2 of 6
dose: 200.0 mg/kg/injection, schedule: Q01DX001 (sc), vehicle: steroid suspending solution
  survivor count: 1 of 6

## CNCC(=O)NC(CO)C(=O)NC(CO)C(=O)NC1C(C(N)=O)OC(n2ccc(N)nc2=O)C(O)C1O (stereo unspecified)
[8]
  survivor count: 0 of 3
[9]
  survivor count: 0 of 3
[10]
  survivor count: 0 of 3

## CN(C)N=Nc1cccnc1
dose: 38.0 mg/kg/injection, schedule: Q01DX009 (ip), vehicle: saline
  T/C: 141 % of control

## CN(C)N=Nc1ccc[n+]([O-])c1
dose: 119.0 mg/kg/injection, schedule: Q01DX009 (ip), vehicle: saline
  survivor count: 5 of 6
dose: 178.0 mg/kg/injection, schedule: Q01DX009 (ip), vehicle: saline
  survivor count: 1 of 6
dose: 267.0 mg/kg/injection, schedule: Q01DX009 (ip), vehicle: saline
  survivor count: 0 of 6
[7]
  survivor count: 1 of 6

## CC[C@@H](c1ccc(O)cc1)[C@@H](CC)c1ccc(O)cc1
[2]
  survivor count: 0 of 6
[3]
  survivor count: 0 of 6
dose: 1000.0 mg/kg/injection, schedule: Q01DX Z (ip), vehicle: carboxymethylcellulose (CMC)
  survivor count: 0 of 6

## Cn1cnc(N)c1C(=N)[Se]
dose: 12.5 mg/kg/injection, schedule: Q01DX009 (ip), vehicle: water
  survivor count: 6 of 6
dose: 25.0 mg/kg/injection, schedule: Q01DX009 (ip), vehicle: water
  survivor count: 5 of 6
dose: 50.0 mg/kg/injection, schedule: Q04DX003 (ip), vehicle: water
  survivor count: 0 of 6

## OCCN(Cc1ccccc1)Cc1ccccc1
[1]
  survivor count: 0 of 6

## O=C1CCc2cccc(O)c2N1
[4]
  survivor count: 2 of 4

## O=C(CCN1CC1)Nc1ccccc1
dose: 100.0 mg/kg/injection, schedule: Q01DX009 (ip), vehicle: Klucel (hydroxypropylcellulose) (HPC)
  survivor count: 4 of 6
dose: 200.0 mg/kg/injection, schedule: Q04DX003 (ip), vehicle: saline
  survivor count: 5 of 6
dose: 400.0 mg/kg/injection, schedule: Q04DX003 (ip), vehicle: saline
  survivor count: 1 of 6

## Cc1cc2ccccc2cc1C
dose: 50.0 mg/kg/injection, schedule: Q04DX002 (ip), vehicle: other
  survivor count: 3 of 3

## CCOc1cc(C#N)c(OCC)cc1N
[4]
  survivor count: 2 of 4
